PubChem BioAssay AID1224828 – NIAID, 2016
Here is a random part of about 17,000 reagents tested. 762 of them (4.5%) count as active. 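Active calls include both raised and lowered p65 entry, mostly lowered; wells with fewer than 50 cells lack a z-score.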 Raw values are not corrected between plates. Entries without a mark were called inactive. Reagents against one gene are numbered here. A reagent listed more than once was tested more than once; the source does not tell the runs apart.

Test: 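Knock-downs that increase or decrease LPS-induced p65 nuclear translocation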 (primary screen)
Cells: mouse RAW264.7 G9 macrophage reporter cells (GFP-p65, Tnf promoter-mCherry)
Reagent: siRNA pool against mouse genes, 100 nM
Timing: 2 days siRNA transfection, then 40 min LPS before fixation
Treatment: LPS (Salmonella minnesota R595) at 10 ng/ml
Measurement: 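Imaged p65 nuclear translocation ratio, normalised to the plate median, converted to robust z-scores and averaged across two replicates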
Scale: p65 translocation robust z-score: higher = more nuclear NF-kappaB p65 after LPS than the plate median; nuclear/cytoplasmic p65 ratio: higher = more nuclear NF-kappaB p65
Rule for the call: 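Called active when z exceeds 3.3 or falls under -1.56 (median of Tlr4 controls), giving activity score of at least 50; no calls for control wells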
Calls: active = hit (p65 shift raised or lowered); inactive = no clear change

target | reagent | p65 translocation robust z-score | nuclear/cytoplasmic p65 ratio, rep 1 | nuclear/cytoplasmic p65 ratio, rep 2 | low cell count flag
Tssk2 (testis-specific serine kinase 2) | 1 | 0.53 | 1.77 | 1.29 | enough cells to score
Or51ai2 (olfactory receptor family 51 subfamily AI member 2) | 1 | – | 1.62 | 1.32 | fewer than 50 cells per well; well left out of scoring
Stard7 (StAR related lipid transfer domain containing 7) | 1 | 0.45 | 1.55 | 1.22 | enough cells to score
Cyp27b1 (cytochrome P450, family 27, subfamily b, polypeptide 1) | 1 | 1.2 | 1.71 | 1.47 | enough cells to score
Tfap2e (transcription factor AP-2, epsilon) | 1 | -0.31 | 1.39 | 1.16 | enough cells to score
Dsp (desmoplakin) | 1 | – | 1.43 | 1.35 | fewer than 50 cells per well; well left out of scoring
Cav3 (caveolin 3) | 1 | -0.13 | 1.51 | 1.3 | enough cells to score
Ntsr1 (neurotensin receptor 1) | 1 | -0.57 | 1.48 | 1.45 | enough cells to score
Slc36a3 | 1 | – | 1.49 | 1.18 | fewer than 50 cells per well; well left out of scoring
Cxcl11 (chemokine (C-X-C motif) ligand 11) | 1 | -0.47 | 1.46 | 1.27 | enough cells to score
Kcnk1 (potassium channel, subfamily K, member 1) | 1 | -1.25 | 1.33 | 1.3 | enough cells to score
Edaradd (EDAR associated via death domain) | 1 | 0.58 | 1.59 | 1.4 | enough cells to score
Elof1 (ELF1 homolog, elongation factor 1) | 1 | -1.19 | 1.39 | 1.27 | enough cells to score
Ints7 (integrator complex subunit 7) | 1 | -0.4 | 1.49 | 1.61 | enough cells to score
Or5b121 (olfactory receptor family 5 subfamily B member 121) | 1 | 0.65 | 1.74 | 1.48 | enough cells to score
Myf6 (myogenic factor 6) | 1 | 0.35 | 1.46 | 1.41 | enough cells to score
Ostn (osteocrin) | 1 | -0.26 | 1.31 | 1.29 | enough cells to score
Rtn2 (reticulon 2 (Z-band associated protein)) | 1 | – | 1.37 | 1.01 | fewer than 50 cells per well; well left out of scoring
Thoc7 (THO complex 7) | 1 | -0.91 | 1.64 | 1.11 | enough cells to score
Thoc7 (THO complex 7) | 2 | -0.57 | 1.33 | 1.49 | enough cells to score
Vmn1r78 (vomeronasal 1 receptor 78) | 1 | – | 1.17 | 1.15 | fewer than 50 cells per well; well left out of scoring
Zfp62 (zinc finger protein 62) | 1 | -0.35 | 1.38 | 1.2 | enough cells to score
Nectin2 (nectin cell adhesion molecule 2) | 1 | -1.06 | 1.38 | 1.36 | enough cells to score
Zfp280c (zinc finger protein 280C) | 1 | -0.56 | 1.37 | 1.15 | enough cells to score
Slc22a29 | 1 | -0.34 | 1.5 | 1.52 | enough cells to score
Ppm1j (protein phosphatase 1J) | 1 | 0.91 | 1.65 | 1.5 | enough cells to score
Tnk1 (tyrosine kinase, non-receptor, 1) | 1 | -2.36 (active) | 1.36 | 1.08 | enough cells to score
Asz1 | 1 | – | 1.58 | 1.48 | fewer than 50 cells per well; well left out of scoring
Mmp8 (matrix metallopeptidase 8) | 1 | 0.78 | 1.33 | 1.44 | enough cells to score
Wnt7b (WNT family member 7B) | 1 | -0.19 | 1.55 | 1.42 | enough cells to score

Just “nuclear/cytoplasmic p65 ratio, rep 1” (9 entries from above):
Kcnk1 (potassium channel, subfamily K, member 1) = 1.33
Edaradd (EDAR associated via death domain) = 1.59
Elof1 (ELF1 homolog, elongation factor 1) = 1.39
Ints7 (integrator complex subunit 7) = 1.49
Or5b121 (olfactory receptor family 5 subfamily B member 121) = 1.74
Myf6 (myogenic factor 6) = 1.46
Ostn (osteocrin) = 1.31
Rtn2 (reticulon 2 (Z-band associated protein)) = 1.37
Thoc7 (THO complex 7) #1 = 1.64

The list goes on:
target | reagent | p65 translocation robust z-score | nuclear/cytoplasmic p65 ratio, rep 1 | nuclear/cytoplasmic p65 ratio, rep 2 | low cell count flag
Pip4p2 (phosphatidylinositol-4,5-bisphosphate 4-phosphatase 2) | 1 | -0.54 | 1.31 | 1.41 | enough cells to score
Cyp2e1 (cytochrome P450, family 2, subfamily e, polypeptide 1) | 1 | -0.23 | 1.58 | 1.7 | enough cells to score
Speer4a1 (spermatogenesis associated glutamate (E)-rich protein 4A1) | 1 | – | 1.36 | 1.17 | fewer than 50 cells per well; well left out of scoring
Igf2bp3 (insulin-like growth factor 2 mRNA binding protein 3) | 1 | 1.45 | 1.65 | 1.54 | enough cells to score
Kcnip1 (Kv channel-interacting protein 1) | 1 | -0.7 | 1.34 | 1.44 | enough cells to score
Myo3b (myosin IIIB) | 1 | 0.31 | 1.37 | 1.62 | enough cells to score
Slc12a4 | 1 | -0.08 | 1.38 | 1.26 | enough cells to score
4930566N20Rik (RIKEN cDNA 4930566N20 gene) | 1 | – | 1.34 | 1.39 | fewer than 50 cells per well; well left out of scoring
Stap2 (signal transducing adaptor family member 2) | 1 | – | 1.46 | 1.5 | fewer than 50 cells per well; well left out of scoring
Tpst1 (protein-tyrosine sulfotransferase 1) | 1 | -0.68 | 1.21 | 1.17 | enough cells to score
Tacr3 (tachykinin receptor 3) | 1 | -0.31 | 1.47 | 1.5 | enough cells to score
Slitrk3 (SLIT and NTRK-like family, member 3) | 1 | – | 1.63 | 1.25 | fewer than 50 cells per well; well left out of scoring
Ccdc88a (coiled coil domain containing 88A) | 1 | 0.16 | 1.59 | 1.83 | enough cells to score
Ccdc88a (coiled coil domain containing 88A) | 2 | 0 | 1.43 | 1.53 | enough cells to score
Ncbp2 (nuclear cap binding protein subunit 2) | 1 | -1.5 | 1.47 | 1.43 | enough cells to score
Gdf10 (growth differentiation factor 10) | 1 | 0.7 | 1.46 | 1.52 | enough cells to score
Strada (STE20-related kinase adaptor alpha) | 1 | -0.02 | 1.65 | 1.41 | enough cells to score
Strada (STE20-related kinase adaptor alpha) | 1 | -0.76 | 1.29 | 1.36 | enough cells to score
Irf8 (interferon regulatory factor 8) | 1 | -0.98 | 1.32 | 1.24 | enough cells to score
Foxi1 (forkhead box I1) | 1 | 1.29 | 1.7 | 1.44 | enough cells to score
Mrpl13 (mitochondrial ribosomal protein L13) | 1 | 0.15 | 1.44 | 1.39 | enough cells to score
Sdc4 (syndecan 4) | 1 | -0.09 | 1.47 | 1.61 | enough cells to score
Prrt3 (proline-rich transmembrane protein 3) | 1 | -0.27 | 1.59 | 1.45 | enough cells to score
Rps19 (ribosomal protein S19) | 1 | -1.12 | 1.25 | 1.11 | enough cells to score
Ccl28 (C-C motif chemokine ligand 28) | 1 | -0.69 | 1.41 | 1.25 | enough cells to score
Prss39 (serine protease 39) | 1 | -1.3 | 1.22 | 1.03 | enough cells to score
Calr3 (calreticulin 3) | 1 | 0.54 | 1.72 | 1.82 | enough cells to score
Naaa (N-acylethanolamine acid amidase) | 1 | -0.06 | 1.61 | 1.48 | enough cells to score
Epb41l4b (erythrocyte membrane protein band 4.1 like 4b) | 1 | – | 1.73 | 0.728 | fewer than 50 cells per well; well left out of scoring
